± gives the standard deviation of the averaged measurements. This is a selection; strong and weak results do not stand in their true shares. Most values lie at the level of the controls, where differences are scatter.
Compound: Nc1ncnc2c1ncn2[C@@H]1O[C@H](COP(=O)(O)OP(=O)(O)NP(=O)(O)O)[C@@H](O)[C@H]1O [adenylyl imidodiphosphate]
Experiment: NP40-soluble protein abundance relative to vehicle (solubility fold change) (ratio); higher = more soluble protein in presence of AMP-PNP
Method in brief: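 Data come from three independent experiments in which Dounce-homogenised Jurkat crude lysate was treated at eight concentrations from 0.1 to 10 mM. Treatment ran 10 min at room temperature and then 3 min at 37 °C, after which 0.8% NP40 and benzonase were added for 60 min at 4 °C before ultracentrifugation. The supernatant underwent TMT labelling and LC-MS/MS, and vsn-normalised intensities were expressed as fold change against the detergent-processed vehicle in each replicate.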

Target	NP40-soluble protein abundance (concentration: 0.1mM)	NP40-soluble protein abundance (concentration: 0.5mM)
A0A087WYG2|E9PFH7 and related entries (UniProt Q9UPT6)	1.01 ± 0.038	0.989 ± 0.0099
A0A0C4DGG9|F5GWX5 and related entries (UniProt Q14839)	0.985 ± 0.018	1.01 ± 0.026
A0A0U1RRK1|F6XEV2 and related entries (UniProt Q9BPX6)	0.983 ± 0.032	0.991 ± 0.012
A0A087X211|Q8TCG1 and related entries (UniProt Q8TCG1)	0.982 ± 0.04	0.995 ± 0.068
A0A0C4DGS0|P56556 and related entries (UniProt P56556)	1.02 ± 0.042	1.02 ± 0.048
A0A087WY00|F8W6H6 and related entries (UniProt Q9Y4I1)	1.52 ± 0.25	1.72 ± 0.28
A0A0D9SFR6|Q86XP1 and related entries (UniProt Q86XP1)	0.99 ± 0.029	1.01 ± 0.024
A0A0B4J2C3|P13693 and related entries (UniProt P13693)	0.958 ± 0.043	0.991 ± 0.039
A0A0A0MTS7|Q8WZ42-12 (UniProt Q8WZ42)	1.02 ± 0.03	0.97 ± 0.04
A0A0C4DFY7|Q6UWW8 (UniProt Q6UWW8)	1.02 ± 0.041	0.985 ± 0.021
A0A087X256|Q2M389 (UniProt Q2M389)	1.01 ± 0.035	1.02 ± 0.055
A0A087X176|Q6ZRP7 (UniProt Q6ZRP7)	0.997 ± 0.024	1.01 ± 0.017
A0A088AWN8|Q9UHQ1 and related entries (UniProt Q9UHQ1)	0.993 ± 0.03	1.01 ± 0.048
A0A0A0MTR2|Q8N543 (UniProt Q8N543)	1 ± 0.025	0.991 ± 0.016
A0A0C4DGV9|P49917 (UniProt P49917)	1.02 ± 0.0064	1.05 ± 0.072
A0A0A0MRV0|Q9P2E9 (UniProt Q9P2E9)	1.01 ± 0.067	1.04 ± 0.11
A0A0C4DGT6|Q96AP0 and related entries (UniProt Q96AP0)	1.02 ± 0.038	1.01 ± 0.043
A0A0C4DGQ5|K7EIV0 and related entries (UniProt P04632)	0.983 ± 0.05	1.03 ± 0.023
A0A087X0V4|A8K0B5 and related entries (UniProt Q8IWT0)	1 ± 0.031	0.961 ± 0.094
A0A0A6YYD5|A0A0B4J2E0|A0A5A8 and related entries (UniProt P01733+A0A5A8)	0.973 ± 0.025	0.956 ± 0.033
A0A0G2JIS2|Q96KQ7 and related entries (UniProt Q96KQ7)	1.03 ± 0.018	0.992 ± 0.025

Target	NP40-soluble protein abundance (concentration: 0.1mM)	NP40-soluble protein abundance (concentration: 0.5mM)
A2A2V1 and related entries (UniProt P04156+A2A2V1)	1.05 ± 0.069	1 ± 0.042
A0A0C4DG17|C9J9K3 and related entries (UniProt P08865)	1.07 ± 0.043	1.033 ± 0.009
A0A087WWC6|P01848 and related entries (UniProt Q6P4I7+P01848)	0.964 ± 0.06	1.04 ± 0.014
A0A0J9YXM6|E9PDG3 and related entries (UniProt Q562E7)	0.974 ± 0.054	0.986 ± 0.02
A0A0C4DGQ8|Q6IAN0 (UniProt Q6IAN0)	1 ± 0.038	1.02 ± 0.039
A0A0C4DFY0|Q14242 and related entries (UniProt Q14242)	0.968 ± 0.012	0.981 ± 0.013
A0A087X1N3|O75818 and related entries (UniProt O75818)	1.02 ± 0.022	0.978 ± 0.063
A0A0A6YYH1|H0YLI7 and related entries (UniProt Q7Z6K5+P59780+H0YLI7)	0.969 ± 0.033	0.986 ± 0.032
A0A140T9R1|A2ABJ5 and related entries (UniProt O75955)	1.06 ± 0.062	0.979 ± 0.012
A0A0C4DFX9|Q9H3P2 (UniProt Q9H3P2)	0.9755 ± 0.0053	1.01 ± 0.033
A0A0A0MTL5|Q13309 and related entries (UniProt Q13309)	1.02 ± 0.011	0.971 ± 0.016
A0A087WXI0 (UniProt Q7Z6P3)	1.04 ± 0.027	1.01 ± 0.022
A0A0A0MTB8|Q8NI36 (UniProt Q8NI36)	1.01 ± 0.039	1.05 ± 0.046
A0A0A0MTR7|A0A0A0MTC1|Q63HN8 and related entries (UniProt Q63HN8)	1.01 ± 0.066	0.954 ± 0.099
A0A0C4DFX7|Q9H967 (UniProt Q9H967)	1.016 ± 0.0038	0.982 ± 0.01
A0A0A0MRY0|Q8WUA7 and related entries (UniProt Q8WUA7)	0.987 ± 0.018	1.04 ± 0.058
A0A0A0MR66|P98175-4 (UniProt P98175)	1.01 ± 0.041	1.01 ± 0.025
A0A096LPI6|A0A0B4J2D5|P30042 (UniProt P30042)	0.972 ± 0.024	1 ± 0.049
A0A087WWP4|Q96T37 and related entries (UniProt Q96T37)	1.008 ± 0.0058	1.03 ± 0.011
A0A0A0MT35|Q8TBF2 and related entries (UniProt Q8TBF2)	1.01 ± 0.021	1 ± 0.025

Whole records, quoted from the list:
A0A0C4DGQ8|Q6IAN0 (UniProt Q6IAN0) as listed: NP40-soluble protein abundance (concentration: 0.1mM): 1 ± 0.038; NP40-soluble protein abundance (concentration: 0.5mM): 1.02 ± 0.039
A0A0C4DFX7|Q9H967 (UniProt Q9H967) as listed: NP40-soluble protein abundance (concentration: 0.1mM): 1.016 ± 0.0038; NP40-soluble protein abundance (concentration: 0.5mM): 0.982 ± 0.01

From the supplement of paper PMC6411743
